Laboratory results published in publication doi:10.1101/2021.11.02.466878.
These are yes or no findings as the source states them, for the method shown. Some binding calls cover weakened binding; strength is not graded here. For part of these data: Tags and fused reporters may be left off the sequences shown. Blank lines part the entries; values can stand above or below the binder they belong to.

How the values were obtained:
[1] = biological target: T1, hClp1, wild-type (human), Q92989; experiment: cross-linking; details: remark: other sources report otherwise
T1 chain: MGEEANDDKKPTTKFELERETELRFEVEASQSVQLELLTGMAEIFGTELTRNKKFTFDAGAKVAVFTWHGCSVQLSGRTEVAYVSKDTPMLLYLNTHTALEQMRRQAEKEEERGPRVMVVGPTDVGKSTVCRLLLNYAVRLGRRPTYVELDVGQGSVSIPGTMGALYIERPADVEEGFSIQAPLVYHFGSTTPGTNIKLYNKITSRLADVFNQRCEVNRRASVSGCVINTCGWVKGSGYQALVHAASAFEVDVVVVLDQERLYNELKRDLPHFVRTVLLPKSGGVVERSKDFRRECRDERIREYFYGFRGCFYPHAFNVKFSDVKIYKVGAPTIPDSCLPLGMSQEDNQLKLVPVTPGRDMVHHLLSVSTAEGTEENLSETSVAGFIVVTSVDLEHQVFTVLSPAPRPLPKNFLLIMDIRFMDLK

hFip1 (human), Q6UN15 = biological target: T2, hFip1 (human), Q6UN15; experiment: cross-linking; details: remark: other sources report otherwise
T2 chain: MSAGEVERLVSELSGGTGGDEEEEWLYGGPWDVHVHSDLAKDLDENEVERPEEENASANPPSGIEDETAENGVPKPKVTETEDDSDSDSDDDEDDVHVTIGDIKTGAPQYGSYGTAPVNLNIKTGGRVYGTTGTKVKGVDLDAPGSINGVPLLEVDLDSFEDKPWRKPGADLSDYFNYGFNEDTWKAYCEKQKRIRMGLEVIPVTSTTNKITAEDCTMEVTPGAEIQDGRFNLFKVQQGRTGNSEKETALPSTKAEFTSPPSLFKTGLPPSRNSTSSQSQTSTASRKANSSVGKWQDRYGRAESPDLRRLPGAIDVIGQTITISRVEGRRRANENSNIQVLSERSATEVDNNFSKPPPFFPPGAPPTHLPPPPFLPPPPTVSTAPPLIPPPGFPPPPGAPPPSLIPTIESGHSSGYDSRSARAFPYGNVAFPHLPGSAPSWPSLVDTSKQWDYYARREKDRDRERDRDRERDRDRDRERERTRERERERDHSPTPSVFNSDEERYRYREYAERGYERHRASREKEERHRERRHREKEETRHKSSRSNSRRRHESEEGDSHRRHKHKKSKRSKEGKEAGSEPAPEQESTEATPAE

CstF50 = biological target: T3, CstF50 (UniProt Q05048); experiment: cross-linking
T3 sequence: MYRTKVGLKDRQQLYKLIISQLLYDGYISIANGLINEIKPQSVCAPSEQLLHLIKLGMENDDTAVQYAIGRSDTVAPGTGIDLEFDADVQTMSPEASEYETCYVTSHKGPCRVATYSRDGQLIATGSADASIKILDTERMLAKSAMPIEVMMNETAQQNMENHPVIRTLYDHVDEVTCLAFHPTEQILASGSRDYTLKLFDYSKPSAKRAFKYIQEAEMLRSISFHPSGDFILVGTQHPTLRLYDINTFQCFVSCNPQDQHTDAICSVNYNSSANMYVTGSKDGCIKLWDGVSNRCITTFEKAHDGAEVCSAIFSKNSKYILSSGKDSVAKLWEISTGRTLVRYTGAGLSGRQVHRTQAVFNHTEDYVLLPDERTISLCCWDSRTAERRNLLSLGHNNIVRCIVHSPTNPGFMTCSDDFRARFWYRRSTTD

CstF77 = biological target: T4, CstF77 (UniProt Q12996); experiment: cross-linking
T4 sequence: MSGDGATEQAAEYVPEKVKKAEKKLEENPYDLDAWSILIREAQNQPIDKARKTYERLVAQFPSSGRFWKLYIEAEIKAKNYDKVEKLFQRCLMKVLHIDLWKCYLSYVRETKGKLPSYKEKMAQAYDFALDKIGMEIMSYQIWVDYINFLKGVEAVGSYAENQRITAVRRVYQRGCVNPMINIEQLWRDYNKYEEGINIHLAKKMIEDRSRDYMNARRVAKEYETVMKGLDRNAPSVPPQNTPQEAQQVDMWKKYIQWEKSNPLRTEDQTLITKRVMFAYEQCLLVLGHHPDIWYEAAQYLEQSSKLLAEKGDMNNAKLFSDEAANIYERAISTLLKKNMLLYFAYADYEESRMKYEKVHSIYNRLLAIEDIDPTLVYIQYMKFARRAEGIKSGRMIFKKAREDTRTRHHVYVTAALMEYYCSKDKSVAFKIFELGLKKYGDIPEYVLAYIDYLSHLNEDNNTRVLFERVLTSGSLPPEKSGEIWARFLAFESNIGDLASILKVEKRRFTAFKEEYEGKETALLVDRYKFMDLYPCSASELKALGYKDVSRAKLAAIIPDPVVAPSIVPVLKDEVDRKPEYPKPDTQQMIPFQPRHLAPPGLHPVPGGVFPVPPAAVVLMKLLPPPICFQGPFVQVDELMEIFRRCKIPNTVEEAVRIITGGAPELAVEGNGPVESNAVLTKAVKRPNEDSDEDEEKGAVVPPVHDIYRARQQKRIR

[2] = biological target: T5, symplekin, as subunit of purified recombinant CPSF or mCF3 (UniProt Q92797); experiment: cross-linking
T5 sequence: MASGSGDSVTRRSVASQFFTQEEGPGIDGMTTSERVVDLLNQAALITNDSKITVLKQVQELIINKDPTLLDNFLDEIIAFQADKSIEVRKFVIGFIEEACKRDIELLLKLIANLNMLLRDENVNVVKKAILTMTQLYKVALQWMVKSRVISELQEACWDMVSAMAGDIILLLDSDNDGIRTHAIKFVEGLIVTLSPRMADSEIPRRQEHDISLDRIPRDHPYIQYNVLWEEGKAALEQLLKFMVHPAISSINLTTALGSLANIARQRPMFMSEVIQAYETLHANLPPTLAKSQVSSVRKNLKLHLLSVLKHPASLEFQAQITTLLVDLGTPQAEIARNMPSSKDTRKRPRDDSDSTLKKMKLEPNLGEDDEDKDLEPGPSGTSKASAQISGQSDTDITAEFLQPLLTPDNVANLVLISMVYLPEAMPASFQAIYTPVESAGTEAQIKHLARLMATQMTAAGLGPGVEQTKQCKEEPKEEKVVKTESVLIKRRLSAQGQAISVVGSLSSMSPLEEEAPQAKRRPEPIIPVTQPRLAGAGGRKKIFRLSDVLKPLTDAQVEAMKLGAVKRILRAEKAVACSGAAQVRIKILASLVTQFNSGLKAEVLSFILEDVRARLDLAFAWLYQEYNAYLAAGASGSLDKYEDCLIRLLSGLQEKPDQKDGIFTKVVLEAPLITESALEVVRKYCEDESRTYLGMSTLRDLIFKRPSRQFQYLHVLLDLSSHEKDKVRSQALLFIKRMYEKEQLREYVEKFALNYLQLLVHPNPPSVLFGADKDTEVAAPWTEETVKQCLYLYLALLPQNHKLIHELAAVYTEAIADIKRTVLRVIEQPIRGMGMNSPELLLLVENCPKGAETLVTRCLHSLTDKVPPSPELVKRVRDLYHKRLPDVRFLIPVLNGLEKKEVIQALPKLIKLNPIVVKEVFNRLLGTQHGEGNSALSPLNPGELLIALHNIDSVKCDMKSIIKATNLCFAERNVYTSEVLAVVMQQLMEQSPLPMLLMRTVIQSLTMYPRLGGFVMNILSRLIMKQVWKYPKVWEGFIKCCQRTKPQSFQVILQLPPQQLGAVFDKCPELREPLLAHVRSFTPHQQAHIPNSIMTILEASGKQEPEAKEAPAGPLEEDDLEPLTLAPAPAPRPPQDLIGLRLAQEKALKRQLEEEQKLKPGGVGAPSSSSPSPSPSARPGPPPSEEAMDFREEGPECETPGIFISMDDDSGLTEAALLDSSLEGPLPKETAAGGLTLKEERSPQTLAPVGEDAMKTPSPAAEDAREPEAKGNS

FLAG-tagged CstF64τ = biological target: T6, FLAG-tagged CstF64τ (UniProt Q9H0L4); experiment: pull-down
T6 sequence: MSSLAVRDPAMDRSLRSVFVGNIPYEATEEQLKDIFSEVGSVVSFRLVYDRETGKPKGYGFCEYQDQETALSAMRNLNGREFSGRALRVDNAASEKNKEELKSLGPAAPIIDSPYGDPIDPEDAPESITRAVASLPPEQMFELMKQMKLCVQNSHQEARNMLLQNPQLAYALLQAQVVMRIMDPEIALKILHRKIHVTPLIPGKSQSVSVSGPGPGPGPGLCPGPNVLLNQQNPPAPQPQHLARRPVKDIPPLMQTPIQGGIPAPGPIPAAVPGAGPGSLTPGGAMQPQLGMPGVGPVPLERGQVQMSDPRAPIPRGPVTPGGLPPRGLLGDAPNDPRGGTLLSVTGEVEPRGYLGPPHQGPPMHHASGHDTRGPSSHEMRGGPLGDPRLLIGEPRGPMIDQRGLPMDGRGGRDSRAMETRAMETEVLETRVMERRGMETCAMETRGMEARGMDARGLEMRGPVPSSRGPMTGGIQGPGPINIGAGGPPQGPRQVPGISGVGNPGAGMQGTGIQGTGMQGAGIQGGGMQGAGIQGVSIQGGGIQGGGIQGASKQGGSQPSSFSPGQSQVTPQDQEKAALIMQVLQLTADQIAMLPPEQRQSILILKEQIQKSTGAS

binding [1]: binds
B1: hClp1, wild-type, Q92989 1-425 (enzyme)
chain: T1 chain

binding (hFip1 (human), Q6UN15): binds
B2: hFip1, Q6UN15 1-594 (protein)
chain: T2 chain

binding (CstF50): binds | binding (CstF77): binds | binding [2]: binds | binding (FLAG-tagged CstF64τ): binds
B3: CstF64 (protein, UniProt P33240 1-577)
chain: MAGLTVRDPAVDRSLRSVFVGNIPYEATEEQLKDIFSEVGPVVSFRLVYDRETGKPKGYGFCEYQDQETALSAMRNLNGREFSGRALRVDNAASEKNKEELKSLGTGAPVIESPYGETISPEDAPESISKAVASLPPEQMFELMKQMKLCVQNSPQEARNMLLQNPQLAYALLQAQVVMRIVDPEIALKILHRQTNIPTLIAGNPQPVHGAGPGSGSNVSMNQQNPQAPQAQSLGGMHVNGAPPLMQASMQGGVPAPGQMPAAVTGPGPGSLAPGGGMQAQVGMPGSGPVSMERGQVPMQDPRAAMQRGSLPANVPTPRGLLGDAPNDPRGGTLLSVTGEVEPRGYLGPPHQGPPMHHVPGHESRGPPPHELRGGPLPEPRPLMAEPRGPMLDQRGPPLDGRGGRDPRGIDARGMEARAMEARGLDARGLEARAMEARAMEARAMEARAMEARAMEVRGMEARGMDTRGPVPGPRGPIPSGMQGPSPINMGAVVPQGSRQVPVMQGTGMQGASIQGGSQPGGFSPGQNQVTPQDHEKAALIMQVLQLTADQIAMLPPEQRQSILILKEQIQKSTGAP
